According to publication PMC4019565:
No constants are given. Whether binding was seen depends on the method and setting. Binding seen in cells or lysates may run through a third protein. Some entries that bind do so weakly or less than the wild type.

Amino acid sequences for entries named in this document (tags omitted). A change or cut given only in a name is not applied to a line headed by its entry.
UniProt Q92688: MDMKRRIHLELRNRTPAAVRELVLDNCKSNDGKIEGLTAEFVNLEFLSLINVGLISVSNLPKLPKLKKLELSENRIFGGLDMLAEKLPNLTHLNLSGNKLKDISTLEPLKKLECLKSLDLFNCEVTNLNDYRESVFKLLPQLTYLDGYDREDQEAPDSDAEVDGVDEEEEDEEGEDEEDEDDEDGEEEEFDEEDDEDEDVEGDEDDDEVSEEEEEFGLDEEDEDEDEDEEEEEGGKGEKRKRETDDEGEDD

Experiments:
Assay in all cases: pull-down
[1] = target: N-Strep HeV M (Hendra virus matrix protein with N-terminal Strep-tag II) (Hendra virus) (UniProt O89341)
[2] = target: C-Strep HeV M (Hendra virus matrix protein with C-terminal Strep-tag II) (Hendra virus) (UniProt O89341)
[3] = target: Strep-ANP32B (N-terminally Strep-tagged ANP32B) (human) (UniProt Q92688)

Substance	binding [1]	binding [2]	binding [3]
acidic leucine-rich nuclear phosphoprotein 32 family member B (ANP32B), endogenous (from UniProt Q92688-1 1-251)	binds	binds	
untagged HeV M (Hendra virus matrix protein) (from UniProt O89341 1-352)			binds
